The values that follow come from the supplement of paper PMC7752906.

Counter-ions that a name gives are not always drawn. The list shows a part of the results. This data set is noisy: repeats of one test often differ as much as different tests do.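 About 40 Schistosoma mansoni schistosomula per well were imaged over time in bright field and compared with 0.1% DMSO wells. A drug counts as a hit if its Mahalanobis distance reaches 2.47 or more, three standard deviations above the DMSO control mean. Degeneracy is the fraction of worms scored opaque.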

In this test the test system is Schistosoma mansoni schistosomula. In words: Mahalanobis distance of static-rate-frequency phenotype descriptors from DMSO controls (dimensionless); higher = stronger phenotypic change versus DMSO. The note with it: 10 µM; 72 h.
As to `NCCNCCNCCN` [Trientine Hydrochloride], the Mahalanobis distance was inactive: 2.19.

As to `CCN1CCCC(OC(=O)C(c2ccccc2)c2ccccc2)C1` (centres undefined) [Piperidolate Hydrochloride], the Mahalanobis distance is active: 3.22.

For the molecule `COc1c(C)c2c(c(O)c1C/C=C(\C)CCC(=O)O)C(=O)OC2` [Mycophenolic Acid], the Mahalanobis distance was inactive: 2.28.

On to `O=C(Oc1ccccc1C(=O)O)c1ccccc1O` [Salsalate], for which the Mahalanobis distance is inactive: 1.91.

As to `Nc1c(CC(=O)O)cccc1C(=O)c1ccc(Br)cc1` [Bromfenac], the Mahalanobis distance is inactive: 2.17.

Consider `CN1C(=O)OC(C)(C)C1=O` [Trimethadione], for which the Mahalanobis distance is inactive: 2.29.

As to `CC(=O)CCCCn1c(=O)c2c(ncn2C)n(C)c1=O` [Pentoxifylline], the Mahalanobis distance is inactive: 1.61.

For the molecule `CCOC(=O)c1ncn2c1CN(C)C(=O)c1cc(F)ccc1-2` [Flumazenil], the Mahalanobis distance is inactive: 2.03.

As for `Nc1nc(N)c2nc(CNc3ccc(C(=O)N[C@@H](CCC(=O)O)C(=O)O)cc3)cnc2n1` [Aminopterin], the Mahalanobis distance is active: 3.26.

Consider `CC(C(=O)O)c1cccc(C(=O)c2ccccc2)c1` (centres undefined) [Ketoprofen], for which the Mahalanobis distance is active: 3.81.

Consider `CCCC1O[C@@H]2C[C@H]3[C@@H]4CCC5=CC(=O)C=C[C@]5(C)[C@H]4[C@@H](O)C[C@]3(C)[C@]2(C(=O)CO)O1` (some centres undefined) [Budesonide], for which the Mahalanobis distance was inactive: 1.74.

In the case of `COc1ccc(C(=O)CC(=O)c2ccc(C(C)(C)C)cc2)cc1` [Avobenzone], the Mahalanobis distance was inactive: 1.68.

As for `COc1c(N2C[C@@H]3CCCN[C@@H]3C2)c(F)cc2c(=O)c(C(=O)O)cn(C3CC3)c12` [Moxifloxacin Hydrochloride], the Mahalanobis distance was inactive: 2.07.

Take `COc1ccc(C(=O)c2ccccc2)c(O)c1` [Oxybenzone]: the Mahalanobis distance was inactive: 2.32.

`CC(=O)OCC(=O)[C@@]1(O)[C@H](C)C[C@H]2[C@@H]3CCC4=CC(=O)C=C[C@]4(C)[C@@]3(F)[C@@H](O)C[C@@]21C` [Dexamethasone Acetate]: the Mahalanobis distance was inactive: 1.9.

As for `COc1ncnc(NS(=O)(=O)c2ccc(N)cc2)c1OC` [Sulfadoxine], the Mahalanobis distance is inactive: 1.43.

With `CC(C)(C)NC(=O)[C@@H]1C[C@@H]2CCCC[C@@H]2CN1C[C@@H](O)[C@H](Cc1ccccc1)NC(=O)[C@H](CC(N)=O)NC(=O)c1ccc2ccccc2n1` [Saquinavir], the Mahalanobis distance was active: 3.61.

Turning to `CCCCCN(CCCCC)C(=O)C(CCC(=O)O)NC(=O)c1ccc(Cl)c(Cl)c1` (centres undefined) [Lorglumide Sodium], the Mahalanobis distance was inactive: 1.97.

For the molecule `Nc1nc2c(ncn2COCCO)c(=O)[nH]1` [Acyclovir], the Mahalanobis distance was inactive: 1.25.

Take `C#C[C@]1(O)CC[C@H]2[C@@H]3CCc4cc(O)ccc4[C@H]3CC[C@@]21C` [Ethinylestradiol]: the Mahalanobis distance is active: 2.79.

On to `C/C(=C(\CCOP(=O)(O)O)SC(=O)c1ccccc1)N(C=O)Cc1cnc(C)nc1N` [Benfotiamine], for which the Mahalanobis distance was inactive: 1.95.

Consider `C=C[C@@]1(C)CC(=O)[C@]2(O)[C@@]3(C)[C@@H](O)CCC(C)(C)[C@@H]3[C@H](O)[C@H](OC(C)=O)[C@@]2(C)O1` [Colforsin], for which the Mahalanobis distance was active: 3.95.

As to `CN(Cc1cnc2nc(N)nc(N)c2n1)c1ccc(C(=O)NC(CCC(=O)O)C(=O)O)cc1` (racemic) [Methotrexate(+/-)], the Mahalanobis distance was inactive: 1.54.

Regarding `CCN(CC)C(=S)SSC(=S)N(CC)CC` [Disulfiram], the Mahalanobis distance was active: 2.75.

`O=C(CCCCCCC(=O)Nc1ccccc1)NO` [Vorinostat]: the Mahalanobis distance was active: 2.9.

Consider `CC[C@H]1OC(=O)C[C@@H](O)[C@H](C)[C@@H](O[C@@H]2O[C@H](C)[C@@H](O[C@H]3C[C@@](C)(O)[C@@H](O)[C@H](C)O3)[C@H](N(C)C)[C@H]2O)[C@@H](CC=O)C[C@@H](C)C(=O)/C=C/C(C)=C/[C@@H]1CO[C@@H]1O[C@H](C)[C@@H](O)[C@@H](OC)[C@H]1OC` [Tylosin Tartrate], for which the Mahalanobis distance was inactive: 1.7.

In the case of `CCN(CC)CCOc1ccc2c(c1)C(=O)c1cc(OCCN(CC)CC)ccc1-2` [Tilorone], the Mahalanobis distance is active: 2.93.

With `CCOC(=O)n1ccn(C)c1=S` [Carbimazole], the Mahalanobis distance was inactive: 1.81.

`O=C1CN(/N=C/c2ccc(-c3ccc([N+](=O)[O-])cc3)o2)C(=O)N1` [Dantrolene]: the Mahalanobis distance was active: 2.97.

With `CN[C@@H]1[C@@H](O)[C@@H](O[C@@H]2[C@@H](O)[C@H](O[C@H]3OC(CN)=CC[C@H]3N)[C@@H](N)C[C@H]2N)OC[C@]1(C)O` [Sisomicin Sulfate], the Mahalanobis distance was inactive: 2.37.

`Cc1cc(NS(=O)(=O)c2ccc(N)cc2)no1` [Sulfamethoxazole]: the Mahalanobis distance was inactive: 1.82.

Regarding `O=C1CN(/N=C/c2ccc([N+](=O)[O-])o2)C(=O)N1` [Nitrofurantoin], the Mahalanobis distance is active: 2.71.

For the molecule `Cc1ccccc1OCC(O)CO` (centres undefined) [Mephenesin], the Mahalanobis distance is inactive: 1.38.

Take `CC1(C)S[C@@H]2[C@H](NC(=O)C(C(=O)O)c3ccccc3)C(=O)N2[C@H]1C(=O)O` (some centres undefined) [Carbenicillin Disodium]: the Mahalanobis distance is inactive: 1.55.

For `C[C@H](N)[C@H](O)c1cccc(O)c1` [Metaraminol Bitartrate], the Mahalanobis distance is inactive: 2.31.

As to `C[C@H](N)[C@H](O)c1cccc(O)c1` [Metaraminol], the Mahalanobis distance was inactive: 1.31.

`CC(O)(CC(=O)O)CC(=O)O` [Meglutol]: the Mahalanobis distance is inactive: 1.85.

For `NNC(=O)c1ccncc1.Nc1ccc(C(=O)O)c(O)c1` [Pasiniazid], the Mahalanobis distance is inactive: 2.03.

As to `O=[N+]([O-])c1ccc(O)c2ncccc12` [Nitroxoline], the Mahalanobis distance is inactive: 2.27.

For `CCC(C)(C)C(=O)O[C@H]1C[C@@H](C)C=C2C=C[C@H](C)[C@H](CC[C@@H]3C[C@@H](O)CC(=O)O3)[C@H]21` [Simvastatin], the Mahalanobis distance was active: 2.48.

For the molecule `C[C@@H]1CN(c2c(F)c(F)c3c(=O)c(C(=O)O)cn(C4CC4)c3c2F)C[C@H](C)N1` [Orbifloxacin], the Mahalanobis distance was inactive: 1.63.

`O=S(=O)(c1cccc2cnccc12)N1CCCNCC1` [Fasudil Hydrochloride]: the Mahalanobis distance was inactive: 1.78.

Turning to `CCc1nn(CCCN2CCN(c3cccc(Cl)c3)CC2)c(=O)n1CCOc1ccccc1` [Nefazodone], the Mahalanobis distance is inactive: 2.27.

In the case of `CC(=O)Nc1ccc(OC(C)=O)cc1` [Diacetamate], the Mahalanobis distance is inactive: 1.77.
